Assay results from article PMC10986609, “Identification of fungal natural products with potent inhibition in Toxoplasma gondii” (Microbiology Spectrum, 2024).
Non-standard residues stand in square brackets, D forms with d. Residues, ends and D or L forms follow the SMILES beside them. *: point of attachment. X1 = CC(C)C[C@@H](CN1CCC[N+]2=C1CCC2)N*; Pip = O=C(O)[C@@H]1CCCCN1; Iva = CC[C@](C)(N)C(=O)O; Aib = CC(C)(N)C(=O)O; βAla = NCCC(=O)O

What follows are compounds tested on Toxoplasma gondii tachyzoites (RH88). Conditions: TgRH88 IC50 versus PfDd2 IC50.
Experimental: For the initial fixed concentration screening and IC50 determination in T. gondii, we utilized a luciferase expressing RH88 strain to quantify the number of live, actively replicating parasites. To construct this strain, the Fluc and DHFR selection markers had been integrated into the UPRT locus through CRISPR/Cas9, rendering the strain pyrimethamine-resistant ([6]). Screening was performed using a pure compound library provided by the University of Oklahoma Natural Products Discovery Group, containing 683 compounds derived primarily from fungal secondary metabolites. For purposes of testing, HFFs were grown in 96-well microtiter plates in preparation. The media we used to grow cells was referred to a D10 media that was composed of Dulbecco's Modified Eagle Medium (Thermo Fisher; Cat # 11995073), 10% Fetal Bovine Serum (Sigma-Aldrich; Cat # 12306C), 1 × non-essential amino acids (100 ×; Thermo Fisher; Cat # 11140050), HEPES buffer (1M; Fisher Scientific; Cat # SH3023701) at 0.4M, and 10 mg/mL of gentamicin (Fisher Scientific; Cat # 15710072). Compounds were then diluted to 10 µM in 100 µL of fresh D10 media. Each plate utilized artemisinin and DMSO vehicle controls. To each well, 2,500 parasites per 100 µL of D10 media were added. Three technical replicates were then performed. After 48 hours, 160 µL of the D10 media was removed, and plates were subjected to freezing then thawing. Following this, 10 µL of the passive lysis buffer (Promega; Cat# E1910) was added and incubated at room temperature for 15 min. Finally, 100 µL of luciferase assay reagent (Promega; Cat# E1501) was added to each well, and luminescence was measured using a PHERAstar FSX plate reader (BMG Labtech, Germany).
For IC50 and cytotoxicity determination, we used 384 plates with confluent HFF cells. Compounds were serially diluted 3-fold with a starting concentration of 20 µM. Samples were further diluted by adding an equal volume of media containing 700 parasites. DMSO and […] of KAE609 were used as negative and positive controls, respectively. Assays were performed with a total of three technical replicates and two biological replicates. After incubation for 48 hours, 50 µL of media was removed, and plates were subjected to freezing and thawing. Following this, 10 µL of passive lysis buffer was added and plates were incubated for 15 min at room temperature. Finally, 30 µL of luciferase reagent was added, and the luminescence was measured immediately using a PHERAstar FSX. In parallel, cytotoxicity dose response was performed in the same fashion without the addition of parasites. Cell counting kit-8 reagent (GlpBio; Cat # GK10001) was added at a 1:10 dilution and incubated at 37°C, 5% CO2 for 1 hour. The absorbance was then measured at 450 nm using a PHERAstar FSX. The data management system CDD vault was used for curve fitting and IC50 determination.
In the case of COC(=O)[C@@]12Oc3cc4c(c(O)c3C(=O)C1=C(O)CC[C@@H]2O)[C@@H]1C=C[C@@]2(C4)C(=O)c3cc(C)cc(O)c3C(O)=C2C1=O [compound 130144, Xanthoquinodin A1], the “times more potent in T. gondii as compared to P. falciparum” value is reported as 2.
For COC(=O)[C@]12Oc3cc4c(c(O)c3C(=O)C1=C(O)CC[C@@H]2O)[C@@H]1C=C[C@@]2(C4)C(=O)c3cc(C)cc(O)c3C(O)=C2C1=O [compound 130147, Xanthoquinodin A2], the “times more potent in T. gondii as compared to P. falciparum” value was 12.
With CC[C@](C)(NC(=O)[C@H](CC(C)C)NC(=O)[C@H](C)NC(=O)C(C)(C)NC(=O)[C@@H]1CCCCN1C(=O)C(C)(C)NC(=O)C(C)(C)NC(=O)CNC(=O)CCNC(=O)[C@H](CC(C)C)NC(=O)C(C)(C)NC(=O)C(C)(C)NC(=O)[C@@H]1CCCCN1C(=O)C(C)(C)NC(=O)[C@@H]1CCCCN1C(C)=O)C(=O)N[C@@H](CC(C)C)CN1CCC[N+]2=C1CCC2 [compound 150003, Efrapeptin F] (Ac-[Pip][Aib][Pip][Aib][Aib]L[βAla]G[Aib][Aib][Pip][Aib]AL[Iva]-X1; N-terminus and C-terminus assumed) the “times more potent in T. gondii as compared to P. falciparum” value was 7.
CC[C@](C)(NC(=O)[C@H](CC(C)C)NC(=O)[C@H](C)NC(=O)C(C)(C)NC(=O)[C@@H]1CCCCN1C(=O)C(C)(C)NC(=O)C(C)(C)NC(=O)CNC(=O)CCNC(=O)[C@H](CC(C)C)NC(=O)C(C)(C)NC(=O)[C@](C)(CC)NC(=O)[C@@H]1CCCCN1C(=O)C(C)(C)NC(=O)[C@@H]1CCCCN1C(C)=O)C(=O)N[C@@H](CC(C)C)CN1CCC[N+]2=C1CCC2 [compound 150004, Efrapeptin G] (Ac-[Pip][Aib][Pip][Iva][Aib]L[βAla]G[Aib][Aib][Pip][Aib]AL[Iva]-X1; N-terminus and C-terminus assumed) was tested, and the “times more potent in T. gondii as compared to P. falciparum” value was 37.

Same assay, conditions: selectivity index, HFF versus TgRH88
Compound C[C@@H]1CC[C@H]2[C@@H](C)C(=O)O[C@@H]3O[C@@]4(C)CC[C@@H]1[C@]32OO4 [Artemisinin, reference compound] has an SI of 15.
For C[C@H]1Cc2c([nH]c3cc(Cl)c(F)cc23)[C@@]2(N1)C(=O)Nc1ccc(Cl)cc12 [KAE609, reference compound], the SI was >46.
C=C1Cc2ccc3[nH]c4c(c3c2[C@H]2[C@@H]1C[C@@H]2C(C)(C)O)C[C@@H]1CC[C@@]2(O)C3=C[C@@H](O)[C@@H](C(=C)C)O[C@H]3CC[C@]2(C)[C@@]41C [compound 120253, Secopenitrem D] was tested, and the SI was >1.
For COC(=O)[C@@]12Oc3ccc(-c4ccc5c(c4O)C(O)C4=C(O)C[C@H](C)[C@@H](O)[C@]4(C(=O)OC)O5)c(O)c3C(=O)C1=C(O)C[C@H](C)[C@H]2O (stereo partly shown) [compound 130002, Secalonic acid D], the SI was 11.
In the case of CC(O)[C@@]12SS[C@]3(C(=O)N1C)[C@@H](O)C1([C@@]45c6ccccc6N[C@@H]4N4C(=O)[C@]6(C(C)O)SS[C@]4(C(=O)N6C)[C@H]5O)c4ccccc4N[C@@H]1N3C2=O (stereo partly shown) [compound 130016, Verticillin D], the SI is reported as 26.
In the case of COC(=O)C12Oc3c(c(O)cc4c3C3C=CC5(C4)C(=O)c4cc(C)cc(O)c4C(O)=C5C3=O)C(O)=C1C(=O)CCC2O (stereo not shown) [compound 130143, Xanthoquinodin B2], the SI is reported as >153.
With COC(=O)[C@@]12Oc3cc4c(c(O)c3C(=O)C1=C(O)CC[C@@H]2O)[C@@H]1C=C[C@@]2(C4)C(=O)c3cc(C)cc(O)c3C(O)=C2C1=O [compound 130144, Xanthoquinodin A1] the SI was 115.
In the case of COC(=O)[C@]12Oc3cc4c(c(O)c3C(=O)C1=C(O)CC[C@@H]2O)[C@@H]1C=C[C@@]2(C4)C(=O)c3cc(C)cc(O)c3C(O)=C2C1=O [compound 130147, Xanthoquinodin A2], the SI is reported as 218.
For CC[C@](C)(NC(=O)[C@H](CC(C)C)NC(=O)[C@H](C)NC(=O)C(C)(C)NC(=O)[C@@H]1CCCCN1C(=O)C(C)(C)NC(=O)C(C)(C)NC(=O)CNC(=O)CCNC(=O)[C@H](CC(C)C)NC(=O)C(C)(C)NC(=O)C(C)(C)NC(=O)[C@@H]1CCCCN1C(=O)C(C)(C)NC(=O)[C@@H]1CCCCN1C(C)=O)C(=O)N[C@@H](CC(C)C)CN1CCC[N+]2=C1CCC2 [compound 150003, Efrapeptin F] (Ac-[Pip][Aib][Pip][Aib][Aib]L[βAla]G[Aib][Aib][Pip][Aib]AL[Iva]-X1; N-terminus and C-terminus assumed), the SI was >360.
CCCCC[C@@H](O)C[C@@H](O)C[C@@H]1Cc2cc3cc(OC)c(-c4c(OC)cc5cc6c(c(O)c5c4O)C(=O)O[C@H](C[C@H](O)C[C@H](O)CCCCC)C6)c(O)c3c(O)c2C(=O)O1 [compound 150020, Dinapinone A] gave an SI of 2.
COC(=O)C1=CC(O)C(O)C(O)C1N1CC(O)C(OC(C)=O)C1Cc1ccc(OC)cc1 (stereo not shown) [compound 150029] gave an SI of 49.
With COC(=O)c1c(Sc2c(O)cc(OC)c(C(=O)c3c(O)cc(C)cc3O)c2C(=O)OC)c(O)cc(OC)c1C(=O)c1c(O)cc(C)cc1O [compound 150052, Polluxochrin] the SI was >75.
In the case of C[C@H]1CCC/C=C/[C@@H]2C[C@H](O)C[C@H]2[C@H](O)/C=C/C(=O)O1 [compound 160010, Brefeldin A], the SI is reported as 26.
In the case of COc1c(C[C@@H](C)OC(=O)Oc2ccc(O)cc2)c2c3c(C[C@@H](C)OC(=O)c4ccccc4)c(OC)c(=O)c4c(O)cc(OC)c(c5c(OC)cc(O)c(c1=O)c52)c43 [compound 170068, Calphostin C], the SI is reported as >17.
CC1=C[C@@H]2/C=C(\C)CC[C@H](O)[C@H](O)/C=C/C(=O)[C@]23C(=O)N[C@@H](CC(C)C)[C@@H]3[C@@H]1C [compound 170081, Aspochalasin D] gave an SI of 24.
“Alpha-cyclopiazonic acid [compound 170027]” was tested, and the SI was >36.
In the case of PF-1140 [compound 120159], the SI is reported as >6.
Verticillin [compound 130038] was tested, and the SI was 1.
